Source: the supplement of paper PMC8728848
The other results are listed elsewhere or left out.

How the values were obtained:
Assay in all cases: glycan array binding signal (z-score within array); higher = stronger binding
Settings in all cases: glycan notation: IUPAC condensed, linker removed
[1] = biological target: GlcNAc(b1-4)[GlcNAc(b1-6)]GalNAc
Outline: (§1)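 Columns mapping to the same glycan were averaged after glycan names were converted to IUPAC-condensed notation. The data come from 3228 arrays in the Consortium for Functional Glycomics database, limited to those with an available protein sequence. Binding is reported as a within-array Z-score averaged across arrays of one protein sequence and across linkers.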

[2] = biological target: GlcNAc(b1-6)Gal(b1-4)GlcNAc
Outline: as §1

GlcNAc(b1-6)GalNAc = biological target: GlcNAc(b1-6)GalNAc
Outline: as §1

Kdn(a2-3)Gal(b1-3)GlcNAc = biological target: Kdn(a2-3)Gal(b1-3)GlcNAc
Outline: as §1

Kdn(a2-3)Gal(b1-4)GlcNAc = biological target: Kdn(a2-3)Gal(b1-4)GlcNAc
Outline: as §1

[3] = biological target: Man(a1-2)Man(a1-2)Man(a1-3)Man
Outline: as §1

[4] = biological target: Man(a1-2)Man(a1-2)Man(a1-6)[Man(a1-3)]Man
Outline: as §1

Man(a1-2)Man(a1-3)Man = biological target: Man(a1-2)Man(a1-3)Man
Outline: as §1

[5] = biological target: Man(a1-2)Man(a1-3)[Man(a1-2)Man(a1-6)]Man
Outline: as §1

[6] = biological target: Man(a1-2)Man(a1-3)[Man(a1-2)Man(a1-6)]Man(a1-6)[Man(a1-2)Man(a1-2)Man(a1-3)]Man(b1-4)GlcNAc(b1-4)GlcNAc
Outline: as §1

[7] = biological target: Man(a1-2)Man(a1-3)[Man(a1-2)Man(a1-6)]Man(a1-6)[Man(a1-3)[Man(a1-6)]Man(a1-6)]Man(b1-4)GlcNAc(b1-4)GlcNAc
Outline: as §1

[8] = biological target: Man(a1-2)Man(a1-3)[Man(a1-6)]Man(a1-6)[Man(a1-2)Man(a1-3)]Man(b1-4)GlcNAc(b1-4)GlcNAc
Outline: as §1

[9] = biological target: Man(a1-2)Man(a1-6)[Man(a1-3)]Man(a1-6)[Man(a1-2)Man(a1-2)Man(a1-3)]Man(b1-4)GlcNAc(b1-4)GlcNAc
Outline: as §1

Man(a1-3)[Man(a1-6)]Man = biological target: Man(a1-3)[Man(a1-6)]Man
Outline: as §1

[10] = biological target: Man(a1-3)[Man(a1-6)]Man(a1-6)[Man(a1-3)]Man(b1-4)GlcNAc(b1-4)GlcNAc
Outline: as §1

[11] = biological target: Man(a1-3)[Man(a1-6)]Man(b1-4)GlcNAc(b1-4)GlcNAc
Outline: as §1

Man(b1-4)GlcNAc = biological target: Man(b1-4)GlcNAc
Outline: as §1

Neu5Ac(a2-3)Gal = biological target: Neu5Ac(a2-3)Gal
Outline: as §1

[12] = biological target: Neu5Ac(a2-3)Gal(b1-3)GalNAc
Outline: as §1

[13] = biological target: Neu5Ac(a2-3)Gal(b1-3)GalNAc(b1-3)Gal(a1-4)Gal(b1-4)Glc
Outline: as §1

[14] = biological target: Neu5Ac(a2-3)Gal(b1-3)GalNAc(b1-3)Gal(b1-4)GlcNAc
Outline: as §1

[15] = biological target: Neu5Ac(a2-3)Gal(b1-3)GalNAc(b1-4)[Neu5Ac(a2-3)]Gal(b1-4)Glc
Outline: as §1

[16] = biological target: Neu5Ac(a2-3)Gal(b1-3)GalNAc6S
Outline: as §1

[17] = biological target: Neu5Ac(a2-3)Gal(b1-3)GlcNAc
Outline: as §1

[18] = biological target: Neu5Ac(a2-3)Gal(b1-3)GlcNAc(b1-3)Gal(b1-3)GlcNAc
Outline: as §1

[19] = biological target: Neu5Ac(a2-3)Gal(b1-3)GlcNAc6S
Outline: as §1

[20] = biological target: Neu5Ac(a2-3)Gal(b1-3)[Fuc(a1-4)]GlcNAc
Outline: as §1

[21] = biological target: Neu5Ac(a2-3)Gal(b1-3)[Fuc(a1-4)]GlcNAc(b1-3)Gal(b1-4)[Fuc(a1-3)]GlcNAc
Outline: as §1

[22] = biological target: Neu5Ac(a2-3)Gal(b1-3)[Neu5Ac(a2-3)Gal(b1-4)]GlcNAc
Outline: as §1

[23] = biological target: Neu5Ac(a2-3)Gal(b1-3)[Neu5Ac(a2-6)]GalNAc
Outline: as §1

Neu5Ac(a2-3)Gal(b1-4)Glc = biological target: Neu5Ac(a2-3)Gal(b1-4)Glc
Outline: as §1

[24] = biological target: Neu5Ac(a2-3)Gal(b1-4)GlcNAc
Outline: as §1

[25] = biological target: Neu5Ac(a2-3)Gal(b1-4)GlcNAc(b1-3)Gal(b1-3)GlcNAc
Outline: as §1

[26] = biological target: Neu5Ac(a2-3)Gal(b1-4)GlcNAc(b1-3)Gal(b1-4)GlcNAc
Outline: as §1

[27] = biological target: Neu5Ac(a2-3)Gal(b1-4)GlcNAc(b1-3)Gal(b1-4)GlcNAc(b1-3)Gal(b1-4)GlcNAc
Outline: as §1

[28] = biological target: Neu5Ac(a2-3)Gal(b1-4)GlcNAc(b1-3)Gal(b1-4)[Fuc(a1-3)]GlcNAc
Outline: as §1

[29] = biological target: Neu5Ac(a2-3)Gal(b1-4)GlcNAc(b1-6)[Gal(b1-3)]GalNAc
Outline: as §1

[30] = biological target: Neu5Ac(a2-3)Gal(b1-4)GlcNAc6S
Outline: as §1

B1: M6PR (Bos taurus), P11456 (protein)
chain: MMSPLHSSWRTGLLLLLLFSVAVRESWQTEEKTCDLVGEKGKESEKELALLKRLTPLFNKSFESTVGQSPDMYSYVFRVCREAGNHSSGAGLVQINKSNGKETVVGRFNETQIFNGSNWIMLIYKGGDEYDNHCGREQRRAVVMISCNRHTLADNFN
[1]
  glycan array binding signal (z-score): 0.804
[2]
  glycan array binding signal (z-score): -0.174
GlcNAc(b1-6)GalNAc
  glycan array binding signal (z-score): -0.476
Kdn(a2-3)Gal(b1-3)GlcNAc
  glycan array binding signal (z-score): 0.277
Kdn(a2-3)Gal(b1-4)GlcNAc
  glycan array binding signal (z-score): -0.218
[3]
  glycan array binding signal (z-score): 0.227
[4]
  glycan array binding signal (z-score): -0.395
Man(a1-2)Man(a1-3)Man
  glycan array binding signal (z-score): -0.287
[5]
  glycan array binding signal (z-score): -0.534
[6]
  glycan array binding signal (z-score): 0.811
[7]
  glycan array binding signal (z-score): 3.23
[8]
  glycan array binding signal (z-score): -0.541
[9]
  glycan array binding signal (z-score): -0.597
Man(a1-3)[Man(a1-6)]Man
  glycan array binding signal (z-score): 0.483
[10]
  glycan array binding signal (z-score): -0.26
[11]
  glycan array binding signal (z-score): -0.448
Man(b1-4)GlcNAc
  glycan array binding signal (z-score): -0.473
Neu5Ac(a2-3)Gal
  glycan array binding signal (z-score): -0.162
[12]
  glycan array binding signal (z-score): -0.299
[13]
  glycan array binding signal (z-score): -0.556
[14]
  glycan array binding signal (z-score): 0.015
[15]
  glycan array binding signal (z-score): 0.114
[16]
  glycan array binding signal (z-score): 0.248
[17]
  glycan array binding signal (z-score): 0.218
[18]
  glycan array binding signal (z-score): -0.496
[19]
  glycan array binding signal (z-score): 0.594
[20]
  glycan array binding signal (z-score): -0.451
[21]
  glycan array binding signal (z-score): 0.125
[22]
  glycan array binding signal (z-score): -0.269
[23]
  glycan array binding signal (z-score): -0.049
Neu5Ac(a2-3)Gal(b1-4)Glc
  glycan array binding signal (z-score): -0.678
[24]
  glycan array binding signal (z-score): -0.226
[25]
  glycan array binding signal (z-score): -0.487
[26]
  glycan array binding signal (z-score): 0.619
[27]
  glycan array binding signal (z-score): -0.446
[28]
  glycan array binding signal (z-score): -0.38
[29]
  glycan array binding signal (z-score): -0.642
[30]
  glycan array binding signal (z-score): -0.267
